# Some results were stated once for a whole list of compounds, not compound by compound.
# Molecular target: T1, human CYP11B2 (Homo sapiens, UniProt P19099)
# T1 construct: expressed in transfected cells; host or cells: V79 Chinese hamster cells
# T1 sequence (P19099 25-503): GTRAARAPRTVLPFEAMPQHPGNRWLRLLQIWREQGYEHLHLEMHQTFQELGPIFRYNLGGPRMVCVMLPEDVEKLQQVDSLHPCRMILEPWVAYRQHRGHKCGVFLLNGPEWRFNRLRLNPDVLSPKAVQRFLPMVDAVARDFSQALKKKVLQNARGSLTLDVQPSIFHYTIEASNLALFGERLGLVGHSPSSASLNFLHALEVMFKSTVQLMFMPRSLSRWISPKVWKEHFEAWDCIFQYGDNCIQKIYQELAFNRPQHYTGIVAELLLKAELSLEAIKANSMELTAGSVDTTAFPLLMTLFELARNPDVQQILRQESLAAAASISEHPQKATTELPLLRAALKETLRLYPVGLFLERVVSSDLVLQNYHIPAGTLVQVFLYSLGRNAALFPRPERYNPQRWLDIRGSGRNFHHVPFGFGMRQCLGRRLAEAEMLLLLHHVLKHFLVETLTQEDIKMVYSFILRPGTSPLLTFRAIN
# Experiment: Aldosterone inhibitory activity in V79 cells expressing human CYP11B2
# Type: cell-based
# Details: V79 Chinese hamster cells stably transfected with human CYP11B2; substrate 11-deoxycorticosterone 100 nM; read-out: IC50, inhibition of the production of aldosterone
# Protocol: For the determination of aldosterone inhibitory activity, tests were carried out using V79 Chinese hamster cells stably transfected with human CYP11B2 or CYP11B1 and using assay protocols as described in Ehmer P B, Bureik M, Bernhardt R, Muller U, Hartmann R W. Development of a test system for inhibitors of human aldosterone synthase (CYP11B2): screening in fission yeast and evaluation of selectivity in V79 cells. J. Steroid Biochem. Mol. Biol. 2002 June; 81(2):173-9. The concentration of the substrate 11-deoxycorticosterone in the assay was 100 nM.
row,Substance,IC50 [nM]
1,"1-(4-propoxypyridin-3-yl)-1-(5,6,7-trichlorobenzo[d]thiazol-2-yl)butan-1-ol [Example 66]",< 1000
2,"1-(5,7-dichloro-6-(2,2,2-trifluoroethoxy)benzo[d]thiazol-2-yl)-1-(4-propoxypyridin-3-yl)butan-1-ol [Example 67]",< 1000
3,"1-(6-bromo-5,7-dichlorobenzo[d]thiazol-2-yl)-1-(4-propoxypyridin-3-yl)butan-1-ol [Example 65]",< 1000
4,"1-(7-chloro-6-(2,2,2-trifluoroethoxy)benzo[d]thiazol-2-yl)-1-(4-propoxypyridin-3-yl)butan-1-ol [Example 68]",< 1000

# Source: patent US11434234B2, “Methods and agents for treating disease” (ANGION BIOMEDICA CORP., priority 2014, dated 2022)
